From patent publication US20140242084A1 (published 2014)
No constants are given. Whether binding was seen depends on the method and setting. For some of these results: Binding seen in cells or lysates may run through a third protein. Some binding calls cover weakened binding; strength is not graded here.

Protein sequences, listed by entry. Tags and fused reporters are not part of them.
UniProt P05556: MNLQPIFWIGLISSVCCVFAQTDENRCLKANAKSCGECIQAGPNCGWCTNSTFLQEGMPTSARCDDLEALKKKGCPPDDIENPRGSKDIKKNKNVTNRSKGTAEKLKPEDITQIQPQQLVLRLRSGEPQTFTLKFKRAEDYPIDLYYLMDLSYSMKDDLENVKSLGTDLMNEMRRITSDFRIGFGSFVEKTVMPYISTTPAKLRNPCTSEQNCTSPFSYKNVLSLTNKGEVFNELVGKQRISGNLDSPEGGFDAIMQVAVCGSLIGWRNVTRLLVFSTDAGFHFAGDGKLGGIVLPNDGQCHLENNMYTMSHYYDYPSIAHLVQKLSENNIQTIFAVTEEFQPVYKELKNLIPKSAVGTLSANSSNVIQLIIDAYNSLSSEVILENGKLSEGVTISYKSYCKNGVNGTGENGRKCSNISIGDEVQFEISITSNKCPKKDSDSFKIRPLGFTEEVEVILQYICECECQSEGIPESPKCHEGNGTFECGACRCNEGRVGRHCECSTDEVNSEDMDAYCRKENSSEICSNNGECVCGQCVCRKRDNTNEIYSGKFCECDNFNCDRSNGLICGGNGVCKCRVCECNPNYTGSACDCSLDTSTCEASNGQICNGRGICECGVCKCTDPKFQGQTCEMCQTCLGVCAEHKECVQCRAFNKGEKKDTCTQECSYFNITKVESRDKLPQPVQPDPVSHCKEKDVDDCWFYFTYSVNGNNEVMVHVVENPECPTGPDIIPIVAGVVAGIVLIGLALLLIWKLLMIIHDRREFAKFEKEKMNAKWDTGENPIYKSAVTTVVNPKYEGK

How the values were obtained:
[1] = biological target: T1, VE-cadherin (SPR analyte) (UniProt P33151); experiment: figure legend: SPR sensorgrams and PLA
T1 sequence (looked up): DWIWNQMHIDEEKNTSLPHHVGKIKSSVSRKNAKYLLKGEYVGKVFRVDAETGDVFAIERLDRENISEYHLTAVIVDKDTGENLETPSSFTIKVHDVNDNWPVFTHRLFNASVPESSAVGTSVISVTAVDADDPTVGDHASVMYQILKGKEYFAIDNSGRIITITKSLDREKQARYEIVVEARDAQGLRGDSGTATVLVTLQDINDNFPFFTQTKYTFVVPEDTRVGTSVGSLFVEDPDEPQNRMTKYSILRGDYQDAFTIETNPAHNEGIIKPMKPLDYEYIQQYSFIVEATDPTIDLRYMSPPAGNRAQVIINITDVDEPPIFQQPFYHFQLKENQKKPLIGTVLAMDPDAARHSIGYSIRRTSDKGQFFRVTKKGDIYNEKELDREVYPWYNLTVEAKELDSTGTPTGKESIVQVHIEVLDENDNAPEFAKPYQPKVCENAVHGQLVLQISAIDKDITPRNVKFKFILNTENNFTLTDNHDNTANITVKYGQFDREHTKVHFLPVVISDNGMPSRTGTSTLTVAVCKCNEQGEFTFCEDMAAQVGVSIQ

[2] = biological target: T2, claudin-5 first extracellular domain (ECD1) (UniProt O00501); experiment: SPR, immobilised cANGPTL4 (FIG. 2B)
T2 sequence (looked up): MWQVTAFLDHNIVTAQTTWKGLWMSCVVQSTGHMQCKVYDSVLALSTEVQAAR

[3] = biological target: T3, VE-cadherin extracellular repeat domain 1 (EC1) (UniProt P33151); experiment: SPR, immobilised cANGPTL4 (FIG. 2B)
T3 sequence (looked up): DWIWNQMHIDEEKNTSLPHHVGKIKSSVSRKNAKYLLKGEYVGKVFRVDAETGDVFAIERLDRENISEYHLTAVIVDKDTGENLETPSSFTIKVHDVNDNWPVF

[4] = biological target: activated integrin β1 (recognised by antibody clone Huts-21) of HMVECs (human) (UniProt P05556); experiment: co-immunoprecipitation from lysates of rh-cANGPTL4-treated HMVECs (FIG. 5A, B)

- binding [1]: binds
- binding [2]: binds
- binding [3]: binds
- binding [4]: binds
B1: recombinant human cANGPTL4 (C-terminal region of angiopoietin-like 4) (ligand, UniProt Q9BY76 186-406, looked up)
chain: RDCQELFQVGERQSGLFEIQPQGSPPFLVNCKMTSDGGWTVIQRRHDGSVDFNRPWEAYKAGFGDPHGEFWLGLEKVHSITGDRNSRLAVQLRDWDGNAELLQFSVHLGGEDTAYSLQLTAPVAGQLGATTVPPSGLSVPFSTWDQDHDLRRDKNCAKSLSGGWWFGTCSHSNLNGQYFRSIPQQRQKLKKGIFWKTWRGRYYPLQATTMLIQPMAAEAAS
notes: domain: c terminal region; the tag is not specified; also called rh-cANGPTL4; rhcANGPTL4
